# According to publication doi:10.1101/2022.09.20.508788:
# By UniProt entry, the sequences of proteins in these tests, tags left out. Residues count along the entry.
# UniProt Q95460, 23-341: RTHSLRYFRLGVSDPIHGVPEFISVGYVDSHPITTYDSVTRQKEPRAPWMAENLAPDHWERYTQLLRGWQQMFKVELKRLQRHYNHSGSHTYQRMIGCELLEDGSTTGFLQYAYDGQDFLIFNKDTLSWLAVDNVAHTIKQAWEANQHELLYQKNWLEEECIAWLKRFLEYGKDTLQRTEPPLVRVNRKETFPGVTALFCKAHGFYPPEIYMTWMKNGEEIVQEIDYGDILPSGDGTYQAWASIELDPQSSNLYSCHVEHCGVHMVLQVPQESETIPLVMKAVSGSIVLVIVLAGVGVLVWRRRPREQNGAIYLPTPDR
# No constants are given. Whether binding was seen depends on the method and setting. Binding seen in cells or lysates may run through a third protein. Here binding means that the protein was enriched with, or labelled near, the bait; the list need not be complete.
# Target: HA tagged MR1 (Major Histocompatibility Related Protein 1) (UniProt Q95460)
# Experiment: affinity purification with mass spectrometry
row,Molecule,binding
1,Calnexin (CANX) (from UniProt P27824 21-592),binds
2,Calreticulin (CALR) (from UniProt P27797 18-417),binds
3,SQSTM1/p62 (from UniProt Q13501 1-440),binds
4,"TMEM59 (protein, UniProt Q9BXS4 36-323) EAFDSVLGDTASCHRACQLTYPLHTYPKEEELYACQRGCRLFSICQFVDDGIDLNRTKLECESACTEAYSQSDEQYACHLGCQNQLPFAELRQEQLMSLMPKMHLLFPLTLVRSFWSDMMDSAQSFITSSWTFYLQADDGKIVIFQSKPEIQYAPHLEQEPTNLRESSLSKMSYLQMRNSQAHRNFLEDGESDGFLRCLSLNSGWILTTTLVLSVMVLLWICCATVATAVEQYVPSEKLSIYGDLEFMNEQKLNRYPASSLVVVRSKTEDHEEAGPLPTKVNLAHSEI",binds
5,"AUP1 (protein, UniProt Q9Y679 1-410) MELPSGPGPERLFDSHRLPGDCFLLLVLLLYAPVGFCLLVLRLFLGIHVFLVSCALPDSVLRRFVVRTMCAVLGLVARQEDSGLRDHSVRVLISNHVTPFDHNIVNLLTTCSTPLLNSPPSFVCWSRGFMEMNGRGELVESLKRFCASTRLPPTPLLLFPEEEATNGREGLLRFSSWPFSIQDVVQPLTLQVQRPLVSVTVSDASWVSELLWSLFVPFTVYQVRWLRPVHRQLGEANEEFALRVQQLVAKELGQTGTRLTPADKAEHMKRQRHPRLRPQSAQSSFPPSPGPSPDVQLATLAQRVKEVLPHVPLGVIQRDLAKTGCVDLTITNLLEGAVAFMPEDITKGTQSLPTASASKFPSSGPVTPQPTALTFAKSSWARQESLQERKQALYEYARRRFTERRAQEAD",binds
6,"EDEM1 (protein, UniProt Q92611 1-657) MQWRALVLGLVLLRLGLHGVLWLVFGLGPSMGFYQRFPLSFGFQRLRSPDGPASPTSGPVGRPGGVSGPSWLQPPGTGAAQSPRKAPRRPGPGMCGPANWGYVLGGRGRGPDEYEKRYSGAFPPQLRAQMRDLARGMFVFGYDNYMAHAFPQDELNPIHCRGRGPDRGDPSNLNINDVLGNYSLTLVDALDTLAIMGNSSEFQKAVKLVINTVSFDKDSTVQVFEATIRVLGSLLSAHRIITDSKQPFGDMTIKDYDNELLYMAHDLAVRLLPAFENTKTGIPYPRVNLKTGVPPDTNNETCTAGAGSLLVEFGILSRLLGDSTFEWVARRAVKALWNLRSNDTGLLGNVVNIQTGHWVGKQSGLGAGLDSFYEYLLKSYILFGEKEDLEMFNAAYQSIQNYLRRGREACNEGEGDPPLYVNVNMFSGQLMNTWIDSLQAFFPGLQVLIGDVEDAICLHAFYYAIWKRYGALPERYNWQLQAPDVLFYPLRPELVESTYLLYQATKNPFYLHVGMDILQSLEKYTKVKCGYATLHHVIDKSTEDRMESFFLSETCKYLYLLFDEDNPVHKSGTRYMFTTEGHIVSVDEHLRELPWKEFFSEEGGQDQGGKSVHRPKPHELKVINSSSNCNRVPDERRYSLPLKSIYMRQIDQMVGLI",binds
